{
  "source": "paper PMC9519446",
  "about": "“Discovery of an Orally Active Benzoxaborole Prodrug Effective in the Treatment of Chagas Disease in Non-human Primates” (Nature microbiology, 2022)",
  "system": "wild-type and peptidase knockout T. cruzi epimastigotes and amastigotes",
  "test": "LC-MS/MS analysis of intracellular AN15368 and AN14667 (uptake and conversion)",
  "format": "cell-based, Trypanosoma cruzi",
  "method": "The cells were then pelleted and resuspended in 100 μL of PBS. The cell suspension was mixed with 200 μl of acetonitrile and centrifuged at 735 gfor 10 minutes at room temperature. After extraction, the supernatant was further diluted with methanol:water 30:70 (v/v) containing 0.4 nM internal standard (IS) AN14817 to a concentration within the calibration range. Each sample was diluted in triplicate to provide technical replicates and the diluted sample (10 μL) was injected for subsequent LC-MS/MS analysis.\nLC-MS/MS analysis was performed on a Waters ACQUITY I-Class UPLC system coupled to a Xevo TQ-S triple quadrupole mass spectrometer. An ACQUITY UPLC BEH C18 column (130 Å, 1.7 μm, 2.1 mm x 50 mm) was used for chromatographic separation, and the column temperature was 40 °C. The mobile phase consisted of water (A) and methanol (B), both containing 0.1% (v/v) formic acid. The following gradient elution was performed at a flow rate of 0.4 mL/min: 0 – 0.5 min, 30% B; 0.5 – 3 min, 30 – 95% B; 3 – 4 min, 95% B; 4 – 4.1 min, 95 – 30% B; and 4.1 – 5 min, 30% B. The MS ionization was carried out in the positive electrospray ionization (ESI) mode with following conditions: capillary voltage = 1.50 kV; desolvation temperature = 500 °C; desolvation gas flow = 1000 L/h; and nebulizer gas pressure = 7.0 bar. […] Data were processed using TargetLynx v4.1 software (Waters).",
  "note": "Values joined by “and” are separate entries in the source; they are usually repeats but may differ in a detail not shown here. Identical values can stand only once.",
  "data": [
    {"smiles": "Cc1c(C(=O)N[C@H](C(=O)O)C(C)C)ccc2c1B(O)OC2", "note": "[AN14667]", "values": [
      {"measurement": "Intracellular level of compound (Fig 2.d)", "setting": "Amastigotes, TcCBP KO", "result": "0.1109 and 0.09984 and 0.1014"},
      {"measurement": "Intracellular level of compound (Fig 2.d)", "setting": "Amastigotes, WT", "result": "5.454 and 5.25 and 5.388"},
      {"measurement": "Intracellular level of compound (Fig 2.d)", "setting": "Epimastigotes, TcCBP KO", "result": "0.009784 and 0.009803 and 0.009218"},
      {"measurement": "Intracellular level of compound (Fig 2.d)", "setting": "Epimastigotes, WT", "result": "0.2824 and 0.2807 and 0.2809"}
    ]},
    {"smiles": "Cc1c(C(=O)N[C@H](C(=O)OCC2CCOCC2)C(C)C)ccc2c1B(O)OC2", "note": "[AN15368]", "values": [
      {"measurement": "Intracellular level of compound (Fig 2.d)", "setting": "Amastigotes, TcCBP KO", "result": "1.4368 and 1.4432 and 1.3408"},
      {"measurement": "Intracellular level of compound (Fig 2.d)", "setting": "Amastigotes, WT", "result": "0.696 and 0.666 and 0.714"},
      {"measurement": "Intracellular level of compound (Fig 2.d)", "setting": "Epimastigotes, TcCBP KO", "result": "0.4189 and 0.3981 and 0.377"},
      {"measurement": "Intracellular level of compound (Fig 2.d)", "setting": "Epimastigotes, WT", "result": "0.1245 and 0.1244 and 0.1308"}
    ]}
  ]
}
